To fix the notation:
T1: Flag-tagged Spt5 (WT) (S. pombe) (UniProt O13936)
T1 sequence: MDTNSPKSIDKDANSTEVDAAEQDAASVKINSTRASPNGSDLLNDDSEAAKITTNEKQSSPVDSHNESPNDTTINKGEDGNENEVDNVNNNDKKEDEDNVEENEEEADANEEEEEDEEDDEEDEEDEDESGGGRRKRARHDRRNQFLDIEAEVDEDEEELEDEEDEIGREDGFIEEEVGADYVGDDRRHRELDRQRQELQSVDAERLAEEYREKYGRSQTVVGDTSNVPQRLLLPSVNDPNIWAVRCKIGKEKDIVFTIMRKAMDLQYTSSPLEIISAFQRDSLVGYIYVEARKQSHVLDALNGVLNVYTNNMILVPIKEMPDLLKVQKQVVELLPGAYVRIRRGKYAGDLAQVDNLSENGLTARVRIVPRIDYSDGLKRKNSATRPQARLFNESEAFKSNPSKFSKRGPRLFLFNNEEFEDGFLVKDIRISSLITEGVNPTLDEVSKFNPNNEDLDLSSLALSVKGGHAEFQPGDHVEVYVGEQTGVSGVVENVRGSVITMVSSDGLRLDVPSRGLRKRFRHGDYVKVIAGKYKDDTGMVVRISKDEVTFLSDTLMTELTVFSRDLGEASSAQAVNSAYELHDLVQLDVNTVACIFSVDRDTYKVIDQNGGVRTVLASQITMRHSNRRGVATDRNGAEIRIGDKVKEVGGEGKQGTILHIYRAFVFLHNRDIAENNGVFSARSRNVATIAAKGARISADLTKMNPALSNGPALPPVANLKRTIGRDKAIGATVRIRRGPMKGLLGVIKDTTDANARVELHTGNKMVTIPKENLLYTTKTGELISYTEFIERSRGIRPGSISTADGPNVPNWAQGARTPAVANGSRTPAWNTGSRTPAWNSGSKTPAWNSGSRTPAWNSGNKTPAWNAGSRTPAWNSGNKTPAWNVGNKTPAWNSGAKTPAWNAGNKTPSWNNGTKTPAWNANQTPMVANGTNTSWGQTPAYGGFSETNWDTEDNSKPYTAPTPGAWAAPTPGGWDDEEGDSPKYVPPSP

B1: RNA-triphosphatase Pct1 (enzyme, UniProt Q9P6Q6 1-303)
chain: MDLKGLLHEENELPSIEKRKIDENAVEHDKVERKRTKSVAVPKIEMNFLNKPIVPDTTKVISNFLTHYLITEPVEHVEIEAKLGTLIDLETQNRFEFPVMNETILNPEFNLRTRFESDMTASEHKYLNEFLNQAFRDSQKPGRLPFAYKHTKQVDLFYETEDNSRDKIRVSKNQSDNQVLACVKKRRVADLFLYCPNDAFDIRISISDELPVSMPSGNQQPSLTRLKDRVGYVHQEIKIDLTKTTQNDPVYDTTERHELEVEFGNIADLRDRAQKAKDGMEAPLFRRVQLFMDNVRILRREHS
B2: full-length Rai1 Strep-tagged (natural protein, S. pombe, UniProt O13836 1-352, looked up)
chain: MLREFSFYDVPPAHVPPVSEPLEIACYSLSRDRELLLDDSKLSYYYPPPLFSDLNTGFPNRFHPPKSDPDPISIVKDVLMTKGIQMNSSFLTWRGLITKIMCAPLDPRNHWETYLVMDPTSGIIMMEERTRSETSYANQDRMCYWGYKFEAISTLPEIWDACSRDQIEQRDNQDVVPDEQYCSIVKINIGKSKLILAGEVDCIWDKKPCSAKESDVHSDDGTIEEDASNAENPNLHYVELKTSKKYPLENYGMRKKLLKYWAQSFLLGIGRIIIGFRDDNGILIEMKELFTHQIPKMLRPYFKPNDWTPNRLLVVLEHALEWIKQTVKQHPPSTEFTLSYTGGSKLVLRQII
notes: source: Rosetta E. coli, purified (StrepTrap HP, Superdex 200)
B3: guanylyl-transferase Pce1 (enzyme, UniProt P40997 1-402)
chain: MAPSEKDIEEVSVPGVLAPRDDVRVLKTRIAKLLGTSPDTFPGSQPVSFSKKHLQALKEKNYFVCEKSDGIRCLLYMTEHPRYENRPSVYLFDRKMNFYHVEKIFYPVENDKSGKKYHVDTLLDGELVLDIYPGGKKQLRYLVFDCLACDGIVYMSRLLDKRLGIFAKSIQKPLDEYTKTHMRETAIFPFLTSLKKMELGHGILKLFNEVIPRLRHGNDGLIFTCTETPYVSGTDQSLLKWKPKEMNTIDFMLKLEFAQPEEGDIDYSAMPEFQLGVWEGRNMYSFFAFMYVDEKEWEKLKSFNVPLSERIVECYLDDENRWRFLRFRDDKRDANHISTVKSVLQSIEDGVSKEDLLKEMPIIREAYYNRKKPSVTKRKLDETSNDDAPAIKKVAKESEKEI

Results are given in words; binding and its absence hold for the method and conditions named. In cells and extracts the contact can be indirect. A yes stands for co-enrichment or nearness to the bait. Other partners may have been found. No binding means not detected with the bait. For some of these results: Sequences can lack the tags named with a protein.

The first test concerns the target T1, Flag-tagged Spt5 (WT) (S. pombe). Nature of the test: affinity purification with mass spectrometry; Flag-tagged Spt5 (WT, dis2Δ, T1A or T1E strains) bound to α-Flag M2 agarose from S. pombe lysate; 25 mM Tris pH 7, 100 mM NaCl, 0.5 mM MgCl2, phosphatase inhibitors; untagged strain as mock.
With Xrn2 (endogenous, S. pombe) (enzyme), the binding entry is “binds”. For “Rtf1 (S. pombe (endogenous in S. pombe cells))”, the binding result is “no binding”. As to B1, the binding result was “binds”. As for B2, the binding entry is “binds”.

As for B3, the binding entry is given as “binds”.

The target in another test is Flag-tagged Spt5 T1E (S. pombe) (UniProt O13936). The test is described as above.
For the molecule B1, the binding entry is “no binding”. For the molecule B3, the binding entry is on record as “no binding”.
